The values that follow come from the supplement of paper PMC10735217.

Where a name gives a salt, the structure may show the parent alone. This is one part of the list. Repeats in this data set agree poorly, so a single value says little.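 Human kidney-derived cells stably carry a construct in which eight TEAD-binding elements drive luciferase, measured by luminescence in a drug-repurposing library screen. A hit is any compound whose signal exceeds the plate mean by more than five robust Z scores.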

The test system of this experiment is HEK293A TEAD-LUC reporter. The experiment is described as follows: TEAD-luciferase reporter activity (YAP activation), robust Z score vs plate; higher = stronger YAP/TEAD activation. The note with it: 24 h. A general note: In a reporter assay the amount or activity of a reporter protein is the signal.

On to `Cn1c(=O)ccc2ccccc21` [1-methyl-2(1H)-quinoli], for which the TEAD-luciferase reporter activity (compound concentration: 200 nM) was inactive: 0.813, the TEAD-luciferase reporter activity (compound concentration: 2 uM) was inactive: 0.485 and the TEAD-luciferase reporter activity (compound concentration: 10 uM) is inactive: -0.927.

For `CCOc1cc2ncc(C#N)c(Nc3ccc(OCc4ccccn4)c(Cl)c3)c2cc1NC(=O)/C=C/[C@H]1CCCN1C` [Pyrotinib], the TEAD-luciferase reporter activity (compound concentration: 200 nM) was inactive: 0.177 and the TEAD-luciferase reporter activity (compound concentration: 10 uM) was inactive: 0.0845.

Turning to `CS(=O)(=O)c1ccc(/C(=C2\CCOC2=O)c2ccc(Br)cc2)cc1`, the TEAD-luciferase reporter activity is inactive: -0.993 (compound concentration: 200 nM), inactive: -0.0639 (compound concentration: 2 uM) and inactive: -1.08 (compound concentration: 10 uM).

For the compound `COc1ccccc1N1CCN(CCCC(O)c2ccc(F)cc2)CC1` (stereo not drawn), the TEAD-luciferase reporter activity is, setting by setting: (compound concentration: 200 nM) inactive: -1.48; (compound concentration: 2 uM) inactive: 0.57; (compound concentration: 10 uM) inactive: 1.26.

For the compound `C=C[C@]1(C)C[C@@H](OC(=O)CSCCN(CC)CC)[C@]2(C)[C@H](C)CC[C@]3(CCC(=O)[C@H]32)[C@@H](C)[C@@H]1O` [Tiamulin], the TEAD-luciferase reporter activity is, setting by setting: (compound concentration: 200 nM) inactive: 0.102; (compound concentration: 2 uM) inactive: -0.279; (compound concentration: 10 uM) inactive: 3.5.

On to `CCCCCCCCCCCCCCCCCC(=O)OCC(CO)OC(=O)CCCCCCCCCCCCCCCCC` (stereo not drawn), for which the TEAD-luciferase reporter activity was inactive: 0.0554 (compound concentration: 200 nM), inactive: -0.628 (compound concentration: 2 uM) and inactive: 0.748 (compound concentration: 10 uM).

In the case of `CCCN(CCC)C(=O)C(Cc1ccc(OCCCN2CCN(C)CC2)cc1)NC(=O)c1ccc(C#N)cc1` (stereo not drawn), the TEAD-luciferase reporter activity (compound concentration: 200 nM) was inactive: 0.00244, the TEAD-luciferase reporter activity (compound concentration: 2 uM) is inactive: -1.13 and the TEAD-luciferase reporter activity (compound concentration: 10 uM) was inactive: 0.604.

`CC(CN(C)C)Oc1ccc(-c2nn(CC(=O)O)c3ncccc23)cc1` (stereo not drawn): the TEAD-luciferase reporter activity was inactive: -0.726 (compound concentration: 200 nM) and inactive: -0.318 (compound concentration: 10 uM).

Turning to `C[C@@]1(O)[C@H](O)[C@@H](CO)O[C@H]1n1cnc2c(=O)[nH]c(N)nc21` [2'-C-Methylguanosine], the TEAD-luciferase reporter activity by setting is: (compound concentration: 200 nM) inactive: 3.95; (compound concentration: 2 uM) inactive: -0.991; (compound concentration: 10 uM) inactive: 2.17.

As to `O=C(Cc1c[nH]c2ccccc12)NCCc1c[nH]c2ccccc12`, the TEAD-luciferase reporter activity by setting is: (compound concentration: 200 nM) inactive: 1.4; (compound concentration: 2 uM) inactive: 0.798; (compound concentration: 10 uM) inactive: -1.71.

Consider `CS(=O)(=O)OCCCNCCCOS(C)(=O)=O` [improsulfan tosilate], for which the TEAD-luciferase reporter activity runs as follows: (compound concentration: 200 nM) inactive: -1.46; (compound concentration: 2 uM) inactive: 2.12; (compound concentration: 10 uM) inactive: -0.663.

Regarding `CC(C)C[C@H](NC(=O)c1ccc(N2CCC(NC[C@H](O)c3ccc(O)c(NS(C)(=O)=O)c3)CC2)cc1)C(=O)O`, the TEAD-luciferase reporter activity reads like this: (compound concentration: 200 nM) inactive: -0.756; (compound concentration: 2 uM) inactive: -0.997; (compound concentration: 10 uM) inactive: 0.0307.

As to `Nc1nccc(Oc2ccc(NC(=O)c3c[nH]cc(-c4ccc(F)cc4)c3=O)cc2F)c1Cl`, the TEAD-luciferase reporter activity runs as follows: (compound concentration: 200 nM) inactive: -0.689; (compound concentration: 2 uM) inactive: 0.353; (compound concentration: 10 uM) inactive: 0.732.

As for `Nc1cccc2c1C(=O)N(C1CCC(=O)NC1=O)C2=O` (stereo not drawn) [pomalidomide], the TEAD-luciferase reporter activity was inactive: -0.648 (compound concentration: 200 nM), inactive: -1.53 (compound concentration: 2 uM) and inactive: -1.1 (compound concentration: 10 uM).

For the compound `CCC(=O)C(CCCCCCOc1ccc(OC)cc1Cl)C(=O)CC` [arildone], the TEAD-luciferase reporter activity is inactive: -0.572 (compound concentration: 200 nM), inactive: -0.0303 (compound concentration: 2 uM) and inactive: -0.677 (compound concentration: 10 uM).

Regarding `CN(C)C(=O)Cc1nn(-c2ccccc2)c(=O)c2c1c1ccc(Cl)cc1n2C`, the TEAD-luciferase reporter activity (compound concentration: 200 nM) was inactive: -0.516, the TEAD-luciferase reporter activity (compound concentration: 2 uM) is inactive: 0.734 and the TEAD-luciferase reporter activity (compound concentration: 10 uM) was inactive: 2.41.

As for `CCC(=O)NC1Cc2cccc(C(=O)OCC(C)C)c2OB1O` (stereo not drawn), the TEAD-luciferase reporter activity is inactive: 0.704 (compound concentration: 200 nM) and inactive: 1.82 (compound concentration: 10 uM).

With `Cc1cc([N+](=O)[O-])c(NS(=O)(=O)c2cccc(C(=O)O)c2)cc1-c1cccnc1` [Alofanib], the TEAD-luciferase reporter activity by setting is: (compound concentration: 200 nM) inactive: -1.11; (compound concentration: 2 uM) inactive: -1.56; (compound concentration: 10 uM) inactive: 1.46.

As for `CN(C)CC(=O)Nc1ccc2[nH]c(=O)c3ccccc3c2c1` [Parsepril], the TEAD-luciferase reporter activity (compound concentration: 2 uM) is inactive: 0.932.

In the case of `CN(C)CC(=O)Nc1ccc2[nH]c(=O)c3ccccc3c2c1` [PARP Inhibitor VIII, PJ34], the TEAD-luciferase reporter activity by setting is: (compound concentration: 200 nM) inactive: -1.81; (compound concentration: 10 uM) inactive: 1.54.

As to `C[C@H]1[C@H]2CC[C@H]3[C@@H]4CC=C5C[C@@H](N(C)C)CC[C@]5(C)[C@H]4CC[C@]23CN1C`, the TEAD-luciferase reporter activity runs as follows: (compound concentration: 200 nM) active: 5.3; (compound concentration: 2 uM) inactive: -0.367; (compound concentration: 10 uM) inactive: -1.51.

For the compound `CNn1cc(C(=O)O)c(=O)c2cc(F)c(N3CCN(C)CC3)cc21`, the TEAD-luciferase reporter activity was inactive: -0.745 (compound concentration: 200 nM), inactive: 3.59 (compound concentration: 2 uM) and inactive: 0.234 (compound concentration: 10 uM).

Turning to `O=C(NCCS)c1cccc(C(=O)NCCS)c1` [Emeramide], the TEAD-luciferase reporter activity runs as follows: (compound concentration: 200 nM) inactive: 0.232; (compound concentration: 2 uM) inactive: -1.5; (compound concentration: 10 uM) inactive: -0.235.

As for `CC(C)NC(=O)N1CCC2(CC1)CN(C(=O)CCCN)Cc1ccccc1O2`, the TEAD-luciferase reporter activity was inactive: -1.58 (compound concentration: 200 nM) and inactive: -2.09 (compound concentration: 10 uM).

For the compound `CS(=O)(=O)Nc1cc(C(O)CNC(c2ccc(OC(F)F)cc2)c2ccc(OC(F)F)cc2)ccc1O` (stereo not drawn), the TEAD-luciferase reporter activity is, setting by setting: (compound concentration: 200 nM) inactive: -0.267; (compound concentration: 2 uM) inactive: -0.873; (compound concentration: 10 uM) inactive: -0.0439.

For `CC1(C)Oc2ccc(C#N)cc2[C@@H](n2ccccc2=O)[C@@H]1O`, the TEAD-luciferase reporter activity by setting is: (compound concentration: 200 nM) inactive: -1.4; (compound concentration: 2 uM) inactive: -1.01; (compound concentration: 10 uM) inactive: -0.859.

`CCOC(=O)Oc1c(OC)cc(C(=O)O[C@@H]2C[C@@H]3CN4CCc5c([nH]c6cc(OC)ccc56)[C@H]4C[C@@H]3[C@H](C(=O)OC)[C@H]2OC)cc1OC`: where the note is “compound concentration: 2 uM”, the TEAD-luciferase reporter activity is inactive: -1.03.

Turning to `CCOC(=O)Oc1c(OC)cc(C(=O)O[C@@H]2C[C@@H]3CN4CCc5c([nH]c6cc(OC)ccc56)[C@H]4C[C@@H]3[C@H](C(=O)OC)[C@H]2OC)cc1OC` [Syrosingopine], the TEAD-luciferase reporter activity is inactive: 1.87 (compound concentration: 200 nM) and inactive: 1.74 (compound concentration: 10 uM).

With `CC[C@H](Nc1ncnc2[nH]cnc12)c1nc2cccc(F)c2c(=O)n1-c1ccccc1` [Idelalisib], the TEAD-luciferase reporter activity was inactive: 0.67 (compound concentration: 200 nM), inactive: -0.385 (compound concentration: 2 uM) and inactive: -0.313 (compound concentration: 10 uM).

In the case of `Clc1ccc(-c2nc3c4ccccc4ccn3n2)cc1` [Lotrifen], the TEAD-luciferase reporter activity reads like this: (compound concentration: 200 nM) inactive: 1.29; (compound concentration: 10 uM) inactive: -1.06.

With `CCCCCO[C@]1(CO)OC[C@@H](O)[C@@H](O)[C@@H]1O`, the TEAD-luciferase reporter activity was inactive: 1.02 (compound concentration: 200 nM), inactive: -0.102 (compound concentration: 2 uM) and inactive: 0.0451 (compound concentration: 10 uM).

As for `CCOC(=O)C1=C(COCCN)NC(C)=C(C(=O)OC)C1c1ccccc1Cl` (stereo not drawn) [amlodipine], the TEAD-luciferase reporter activity was inactive: -0.626 (compound concentration: 200 nM), inactive: -1.49 (compound concentration: 2 uM) and inactive: 0.841 (compound concentration: 10 uM).

In the case of `CCNC(=O)[C@@H]1CCCN1C(=O)[C@H](CCCN=C(N)N)NC(=O)[C@H](CC(C)C)NC(=O)[C@@H](Cc1cn(Cc2ccccc2)cn1)NC(=O)[C@H](Cc1ccc(O)cc1)NC(=O)[C@H](CO)NC(=O)[C@H](Cc1c[nH]c2ccccc12)NC(=O)[C@H](Cc1cnc[nH]1)NC(=O)[C@@H]1CCC(=O)N1` [Histrelin Acetic Acid Salt], the TEAD-luciferase reporter activity (compound concentration: 2 uM) is inactive: -1.01.

As for `CCNC(=O)[C@@H]1CCCN1C(=O)[C@H](CCCN=C(N)N)NC(=O)[C@H](CC(C)C)NC(=O)[C@@H](Cc1cn(Cc2ccccc2)cn1)NC(=O)[C@H](Cc1ccc(O)cc1)NC(=O)[C@H](CO)NC(=O)[C@H](Cc1c[nH]c2ccccc12)NC(=O)[C@H](Cc1cnc[nH]1)NC(=O)[C@@H]1CCC(=O)N1` [histrelin], the TEAD-luciferase reporter activity (compound concentration: 200 nM) was inactive: 1.9 and the TEAD-luciferase reporter activity (compound concentration: 10 uM) is inactive: -0.018.
